From patent US20230018888A1
Residue numbers refer to the chain shown, from its start. No constants are given. Whether binding was seen depends on the method and setting. Some binding calls cover weakened binding; strength is not graded here.

Sequences of proteins named here, by UniProt entry; tags and fusion partners are left off. Residues count along the entry.
UniProt Q9UHX3, residues 24-823: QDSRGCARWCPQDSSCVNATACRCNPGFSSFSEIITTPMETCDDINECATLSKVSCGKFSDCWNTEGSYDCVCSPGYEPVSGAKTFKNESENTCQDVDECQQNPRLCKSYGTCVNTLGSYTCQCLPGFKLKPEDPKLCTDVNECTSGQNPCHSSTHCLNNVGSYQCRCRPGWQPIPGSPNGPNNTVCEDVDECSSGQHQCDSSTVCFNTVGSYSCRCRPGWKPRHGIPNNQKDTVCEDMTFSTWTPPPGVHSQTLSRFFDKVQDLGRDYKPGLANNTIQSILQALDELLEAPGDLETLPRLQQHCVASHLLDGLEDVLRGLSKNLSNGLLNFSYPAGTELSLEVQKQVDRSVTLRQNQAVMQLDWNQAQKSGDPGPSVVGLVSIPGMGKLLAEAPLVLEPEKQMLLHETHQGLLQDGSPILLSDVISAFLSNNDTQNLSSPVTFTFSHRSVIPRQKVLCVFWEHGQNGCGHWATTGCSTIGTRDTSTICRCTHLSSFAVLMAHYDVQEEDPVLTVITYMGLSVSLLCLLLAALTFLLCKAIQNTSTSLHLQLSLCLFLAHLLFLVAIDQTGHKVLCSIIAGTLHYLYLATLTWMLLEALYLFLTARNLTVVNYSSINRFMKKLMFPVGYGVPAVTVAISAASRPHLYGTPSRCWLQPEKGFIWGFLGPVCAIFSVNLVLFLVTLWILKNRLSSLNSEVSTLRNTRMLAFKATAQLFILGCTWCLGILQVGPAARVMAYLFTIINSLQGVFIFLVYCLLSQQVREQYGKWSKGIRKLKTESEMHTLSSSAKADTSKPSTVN

B1: anti-ADGRE2 scFv A (scFv)
scFv: QVQLQQSGAEVKKPGASVKVSCKASGYTFTNYWMQWVRQAPGQGLEWMGAVYPGDGDTRHTQKFKGRVTMTRDTSTSTVYMELSSLRSEDTAVYYCARGFTAYGMDYWGQGTLVTVSSASTGGGGSGGGGSGGGGSEIVLTQSPATLSLSPGERATLSCSASSSVSYMHWYQQKPGLAPRLLIYDTSKLASGIPDRFSGSGSGTDFTLTISRLEPEDFAVYYCQQWSSNPLTFGQGTKVEIK
B2: anti-ADGRE2 scFv N (scFv)
scFv: QVQLQQSGAEVKKPGASVKLSCKASGYTFTNYWMQWVRQAPGQGLEWIGAVYPGDGDTRYTQKFQGRATLTADTSTSTVYMEVSSLRSEDTAVYYCARGFTAYGMDYWGQGTTVTVSSGGGGSGGGGSGGGGSEIVLTQSPATMSASPGERVTMSCSASSSVSYMHWYQQKSGLSPKRWIYDTSKLASGVPDRFSGSGSGTDYTFTISRMEPEDFATYYCQQWSSNPLTFGGGTKLEIK
B3: anti-ADGRE2 scFv B (scFv)
scFv: B2 scFv with V37I, T76I, V79A, S85R, E89D
B4: anti-ADGRE2 scFv K (scFv)
scFv: QVQLQQSGAEVAKPGASVKLSCKASGYTFTNYWMQWIKQAPGQGLEWIGAVYPGDGDTRHTQKFKGKATLTADKSTSTAYMEVSSLRSEDTAVYYCARGFTAYGMDYWGQGTTVTVSSGGGGSGGGGSGGGGSEIVLTQSPATMSASPGERVTMSCSASSSVSYMHWYQQKSGQSPKRWIYDTSKLASGVPARFSGSGSGTDYTFTISSMEPEDFATYYCQQWSSNPLTFGGGTKLEIK

Molecular target: Adhesion G Protein-coupled Receptor E2 (ADGRE2), overexpressed on murine lymphoma EL4 cells (human) (UniProt Q9UHX3)
Assay: flow cytometry on EL4 cells overexpressing ADGRE2

binding, binds:
B1, B2, B3, B4
